Measurements published in patent US9937260B2, “Curcumin conjugates for treating and preventing cancers” (BOARD OF SUPERVISORS OF LOUISIANA STATE UNIVERSITY AND …, priority 2008, dated 2018).
Not every detail of the peptide structures is certain; ends, links or a residue may be inferred. Non-standard residues stand in square brackets, D forms with d. Residues, ends and D or L forms follow the SMILES beside them. pGlu = O=C1CC[C@@H](C(=O)O)N1

Key:
[1] = tested on: luciferase-transfected MIAPaCa-2 xenograft tumors; test: Human pancreatic cancer xenograft in female athymic nude mice; assay type: in vivo; settings: vs LHRH or vehicle groups, P<0.05; tail vein twice a week for 3 weeks; FIG. 5(A)
From the text: MIAPaCa-2, a cell line expressing the LHRH receptor, was then used for in vivo experiments. We stably transfected MIAPaCa-2 cells with a gene encoding luciferase. We used the transfected cells to produce a pancreatic cancer xenograft mouse model.
Forty-eight female nude mice (athymic Balb/c, 4-5 weeks old) were obtained from a commercial vendor (Charles River Laboratories, Wilmington, Mass.), and caged individually in a room maintained at constant temperature and humidity under a 12-h light and darkness cycle, and fed a regular, autoclaved chow diet with water ad libitum. […]
After the tumors were established (100-250 mm^3), the 48 mice were randomized into six different treatment groups (n=8 mice per group): (1) LHRH alone, (2) LHRH-Curcumin, (3) LHRH-Phor21, (4) unconjugated LHRH and Phor21, (5) vehicle control, and (6) a control group of tumor-bearing mice that were necropsied before treatment (baseline controls). […] Tumor volumes and mice body weights were measured twice weekly, and mice were necropsied one week after the last treatment. At necropsy, tumors, ovaries, kidneys, pancreases, lungs, spleen, several bones, and liver were removed and weighed, and metastastic cell numbers were measured by luciferase assay. The tumor volumes and weights were analyzed by one-way ANOVA, and compared among groups using an unpaired Student's t-test. […]

[2] = tested on: MIAPaCa-2, BxPC-3 and PANC-1 pancreatic cancer cells; test: Modified MTT cytotoxicity assay; assay type: cell-based, human; settings: 24 hours, FIGS. 2(A)-2(C)
Method: Pancreatic cell lines MIAPaCa-2, BxPC-3, and PANC-1 were obtained from the American Type Culture Collection. All cell lines were cultured in DMEM supplemented with 10% FBS, 100 units/mL penicillin, and 100 μg/mL streptomycin. The presence and location of LHRH-receptors in these pancreatic cancer cell lines was determined by immunochemical methods.
The cytotoxicity of the peptides was determined with a modified MTT (3-(4, 5-dimethylthiazol-2-yl)-2, 5-diphenyltetrazolium bromide) assay. Briefly, MIAPaCa-2, BxPC-3 and PANG-1 cells (2000/well) were separately incubated in 96-well plates in triplicate in a cell growth medium with different concentrations of LHRH, LHRH-Curcumin, Curcumin, and LHRH-Phor21. Three wells served as controls, each receiving an equivalent volume of medium. After 24 hours, an MTT solution (5 mg/ml in PBS) was added to each well and incubated for 2 hours at 37° C., followed by extraction with buffer (20% SDS and 50% dimethylformamide). The cells were incubated overnight at 37° C. Optical absorbance of the cell suspension was then measured at 590 nm using an MRX Revelation 96-well multiscanner (Dynex Technologies, Chantilly, Va.). From these measurements the IC50 doses of the peptides were calculated. […] Values given are mean±SD of triplicate cultures.

Structure (SMILES): CC(C)C[C@H](NC(=O)CNC(=O)[C@H](Cc1ccc(O)cc1)NC(=O)[C@H](CO)NC(=O)[C@H](Cc1c[nH]c2ccccc12)NC(=O)[C@H](Cc1c[nH]cn1)NC(=O)[C@@H]1CCC(=O)N1)C(=O)N[C@@H](CCCNC(=N)N)C(=O)N1CCC[C@H]1C(=O)NCC(=O)N[C@@H](CCCCN)C(=O)N[C@@H](Cc1ccccc1)C(=O)N[C@@H](C)C(=O)N[C@@H](CCCCN)C(=O)N[C@@H](Cc1ccccc1)C(=O)N[C@@H](C)C(=O)N[C@@H](CCCCN)C(=O)N[C@@H](CCCCN)C(=O)N[C@@H](Cc1ccccc1)C(=O)N[C@@H](C)C(=O)N[C@@H](CCCCN)C(=O)N[C@@H](Cc1ccccc1)C(=O)N[C@@H](C)C(=O)N[C@@H](CCCCN)C(=O)N[C@@H](CCCCN)C(=O)N[C@@H](Cc1ccccc1)C(=O)N[C@@H](C)C(=O)N[C@@H](CCCCN)C(=O)N[C@@H](Cc1ccccc1)C(=O)N[C@@H](C)C(=O)N[C@@H](CCCCN)C(=O)O [LHRH-Phor21] ([pGlu]HWSYGLRPGKFAKFAKKFAKFAKKFAKFAK-OH; C-terminus assumed)
- tumor volume by day 44 [1]: significantly lower
- inhibition of proliferation of pancreatic cancer cells [2]: inhibited the proliferation of pancreatic cancer cells
